Results are given in words; binding and its absence hold for the method and conditions named. Some binding calls cover weakened binding; strength is not graded here. Sequences can lack the tags named with a protein.
Experiments:
[1] = biological target: T1, human cell-expressed tag-free recombinant human MFG-E8 (rhMFG-E8) (human) (UniProt Q08431); test: cell adhesion assay; wells pre-coated with different concentrations of rhMFG-E8; fluorescently labelled SVEC4-10 cells added; after washes the percentage of cells that remained bound to the plate was read on a fluorescence plate reader; also repeated with lyophilised protein stored at -20°C for up to 2 years; only the target purified
T1 sequence: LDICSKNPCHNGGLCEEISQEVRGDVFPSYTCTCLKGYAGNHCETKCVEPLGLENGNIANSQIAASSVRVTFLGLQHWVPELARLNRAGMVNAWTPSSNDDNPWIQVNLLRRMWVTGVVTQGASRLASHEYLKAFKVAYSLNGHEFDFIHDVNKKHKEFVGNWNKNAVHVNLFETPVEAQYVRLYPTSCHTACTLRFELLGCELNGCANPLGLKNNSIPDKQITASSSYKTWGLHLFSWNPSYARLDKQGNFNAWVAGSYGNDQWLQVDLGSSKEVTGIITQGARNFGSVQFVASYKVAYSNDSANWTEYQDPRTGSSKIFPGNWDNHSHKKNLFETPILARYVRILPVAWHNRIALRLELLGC

Sequences of proteins named here, by UniProt entry; tags and fusion partners are left off. A change or cut given only in a name is not applied to a line headed by its entry.
UniProt P43406: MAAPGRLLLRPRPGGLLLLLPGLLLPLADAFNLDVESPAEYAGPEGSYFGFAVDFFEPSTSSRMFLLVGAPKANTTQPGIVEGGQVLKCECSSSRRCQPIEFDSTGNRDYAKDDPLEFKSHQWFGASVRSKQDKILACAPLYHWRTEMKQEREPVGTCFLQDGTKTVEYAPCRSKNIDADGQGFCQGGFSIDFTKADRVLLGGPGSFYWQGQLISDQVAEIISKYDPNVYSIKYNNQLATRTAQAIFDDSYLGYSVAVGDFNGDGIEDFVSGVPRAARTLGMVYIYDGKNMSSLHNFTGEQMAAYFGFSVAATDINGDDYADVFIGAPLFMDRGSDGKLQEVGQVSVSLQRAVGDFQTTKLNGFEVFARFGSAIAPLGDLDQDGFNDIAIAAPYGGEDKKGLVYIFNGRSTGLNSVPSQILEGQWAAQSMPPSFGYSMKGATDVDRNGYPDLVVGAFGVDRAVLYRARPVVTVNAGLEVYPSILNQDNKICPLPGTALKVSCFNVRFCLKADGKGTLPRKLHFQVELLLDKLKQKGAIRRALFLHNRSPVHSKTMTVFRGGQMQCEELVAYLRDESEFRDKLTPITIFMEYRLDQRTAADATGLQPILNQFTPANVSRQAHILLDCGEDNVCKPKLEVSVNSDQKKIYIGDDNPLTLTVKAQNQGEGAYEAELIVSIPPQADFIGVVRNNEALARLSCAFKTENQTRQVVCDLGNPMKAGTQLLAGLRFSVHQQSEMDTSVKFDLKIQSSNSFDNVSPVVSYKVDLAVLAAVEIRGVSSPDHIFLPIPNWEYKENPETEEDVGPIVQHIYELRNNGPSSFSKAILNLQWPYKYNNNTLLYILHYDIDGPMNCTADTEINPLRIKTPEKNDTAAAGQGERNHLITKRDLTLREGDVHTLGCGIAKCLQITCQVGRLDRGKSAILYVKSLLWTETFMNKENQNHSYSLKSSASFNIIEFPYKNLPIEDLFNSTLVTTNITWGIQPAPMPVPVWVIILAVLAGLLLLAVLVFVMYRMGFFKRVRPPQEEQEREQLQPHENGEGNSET

[2] = biological target: T2, commercially available mammalian cell-expressed His-tagged rhMFG-E8 (R&D Systems, cat: 2767-MF) (human) (UniProt Q08431); test: as above
T2 sequence: T1 sequence

In the case of “αvβ3 integrin on the surface of mouse vascular endothelial cells SVEC4-10 (from UniProt P43406 31-1044; O54890 26-787) (receptor)”, the binding [1] is reported as “binds” and the binding [2] is reported as “binds”.

Source: publication PMC10246299
